Consider 4 molecules from US20250277050A1.

By UniProt entry, the sequences of proteins in these tests, tags left out. Residues count along the entry.
UniProt P28908, residues 19-379: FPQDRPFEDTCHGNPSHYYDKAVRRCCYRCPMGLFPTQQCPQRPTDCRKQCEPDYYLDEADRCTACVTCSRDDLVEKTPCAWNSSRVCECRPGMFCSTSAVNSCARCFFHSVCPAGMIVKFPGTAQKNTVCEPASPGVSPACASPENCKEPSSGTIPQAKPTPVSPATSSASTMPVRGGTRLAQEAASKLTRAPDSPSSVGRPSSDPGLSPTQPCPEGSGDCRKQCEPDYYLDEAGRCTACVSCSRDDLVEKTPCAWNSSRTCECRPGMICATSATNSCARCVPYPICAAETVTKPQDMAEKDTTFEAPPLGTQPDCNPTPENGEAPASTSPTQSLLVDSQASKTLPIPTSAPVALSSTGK

Substitutions are numbered along the chain they refer to. These are yes or no findings as the source states them, for the method shown. Some results given as binding are weak or reduced against the parent protein; the word gives no strength.

Sequences and labels used below:
B1: 8D10 (antibody, V domains shown)
VH: QVQLQESGTELVKPGASVKLSCKASGYTFTSYWMHWMKQRPGQGLEWIGNINPSNGGTNYNEKFKNKATLTVDKSSSTAYMQLSSLTSEDSAVYYCARRDYYYGSSYGFDVWGTGTTVTVSS
VL: DIVMTQSPASQSASLGESVTITCLASQTIGTWLAWYQQKPGKSPQFLIYAATSLADGVPSRFSGSGSGTKFSFKISSLQAEDFVSYYCQQLYSTPFTFGGGTKLEIK
B2: 13H1 (antibody, V domains shown)
VH: QVQLQQSGTELVKPGASVKLSCKASGHTFTSYWMHWVKQRPGQGLEWIGNINPSNGGTNYNEKFKSKATLTVDKSSSTAYMQLSSLTSEDSAVYYCARRGYYGSSSYWSFDVWGTGTTVTVSS
VL: DIVMTQTPKSMSMSVGERVTLSCKASENVGTYVSWYQQKPEQSPKVLIYGASNRFTGVPDRFTGSGSATDFTLTISSVQTEDLADYHCGQSYSYPLTFGAGTKLELK
B3: 12B1 (antibody, V domains shown)
VH: EVKLEESGTELVKPGASVKLSCKASGYTFTSYWMHWVKQRPGQGLEWIGNINPTNGGTNYNEKFKSKATLTVDKSSRTAYMQLSSLTSGDSAVYYCARRDFITTSGFAYWGQGTLVTVSA
VL: DIVMTQTTASLSTSVGETVTITCRASGNLHSYLTWYQQKQGKSPQLLVYNAKTLADGVPSRFSGSGSGTQYSLKIDSLQPEDFGSYYCQHFWTTPFTFGSGTKLEIK
B4: 15B8 (antibody, V domains shown)
VH: QVQLEQSGTELVKPGASVKLSCKASGYTFTSYWMHWVKQRPGQGLEWIGNINPSNGGTNYNEKFKSKATLTVDKSSSTAYMQLSSLTSEDSAIYYCARRNNYYASSPFAYWGQGTLVSVSA
VL: B3 VL with T8P, T13A, L29I, S31N, T34A, D76N, T93S

The target in the test is recombinant CD30-GST fusion protein (human) (UniProt P28908). The experiment in a line: ELISA, plate coated with recombinant CD30-GST fusion protein. (In general: ELISA stands for enzyme-linked immunosorbent assay.)
Regarding B1, the binding entry is on record as “binds”.

In the case of B2, the binding entry is “binds”.

In the case of B3, the binding entry is “binds”.

On to B4, for which the binding result was “binds”.
